# Laboratory results from the supplement of paper PMC8728848.
# The list shows a part of the results.
# What was measured:
# Assay in all cases: glycan array binding signal (z-score within array); higher = stronger binding
# Conditions in all cases: glycan notation: IUPAC condensed, linker removed
# [1] = target: Gal(a1-2)Gal
# How it was run: (§1)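 Columns mapping to the same glycan were averaged after glycan names were converted to IUPAC-condensed notation. The data come from 3228 arrays in the Consortium for Functional Glycomics database, limited to those with an available protein sequence. Binding is reported as a within-array Z-score averaged across arrays of one protein sequence and across linkers.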
# [2] = target: Gal(a1-3)Gal
# How it was run: as §1
# [3] = target: Gal(a1-3)Gal(b1-3)GlcNAc
# How it was run: as §1
# [4] = target: Gal(a1-3)Gal(b1-4)Glc
# How it was run: as §1
# [5] = target: Gal(a1-3)Gal(b1-4)GlcNAc
# How it was run: as §1
# [6] = target: Gal(a1-3)Gal(b1-4)[Fuc(a1-3)]GlcNAc
# How it was run: as §1
# [7] = target: Gal(a1-3)Gal(b1-4)[Fuc(a1-3)]GlcNAc(b1-2)Man(a1-3)[Gal(a1-3)Gal(b1-4)[Fuc(a1-3)]GlcNAc(b1-2)Man(a1-6)]Man(b1-4)GlcNAc(b1-4)GlcNAc
# How it was run: as §1
# [8] = target: Gal(a1-3)GalNAc
# How it was run: as §1
# [9] = target: Gal(a1-3)[Gal(a1-4)]Gal(b1-4)GlcNAc
# How it was run: as §1
# [10] = target: Gal(a1-4)Gal(b1-4)Glc
# How it was run: as §1
# [11] = target: Gal(a1-4)Gal(b1-4)GlcNAc
# How it was run: as §1
# [12] = target: Gal(a1-4)Gal(b1-4)GlcNAc(b1-3)Gal(b1-4)Glc
# How it was run: as §1
# [13] = target: Gal(a1-4)GlcNAc
# How it was run: as §1
# [14] = target: Gal(a1-6)Glc
# How it was run: as §1
# [15] = target: Gal(b1-2)Gal
# How it was run: as §1
# [16] = target: Gal(b1-3)Gal
# How it was run: as §1
# [17] = target: Gal(b1-3)Gal(b1-4)GlcNAc
# How it was run: as §1
# [18] = target: Gal(b1-3)Gal(b1-4)GlcNAc(b1-2)Man(a1-3)[Gal(b1-3)Gal(b1-4)GlcNAc(b1-2)Man(a1-6)]Man(b1-4)GlcNAc(b1-4)GlcNAc
# How it was run: as §1
# [19] = target: Gal(b1-3)GalNAc
# How it was run: as §1
# [20] = target: Gal(b1-3)GalNAc(a1-3)[Fuc(a1-2)]Gal(b1-4)Glc
# How it was run: as §1
# [21] = target: Gal(b1-3)GalNAc(a1-3)[Fuc(a1-2)]Gal(b1-4)GlcNAc
# How it was run: as §1
# [22] = target: Gal(b1-3)GalNAc(b1-3)Gal(a1-4)Gal(b1-4)Glc
# How it was run: as §1
# [23] = target: Gal(b1-3)GalNAc(b1-4)Gal(b1-4)Glc
# How it was run: as §1
# [24] = target: Gal(b1-3)GalNAc(b1-4)[Neu5Ac(a2-3)]Gal(b1-4)Glc
# How it was run: as §1
# [25] = target: Gal(b1-3)GlcNAc
# How it was run: as §1
# [26] = target: Gal(b1-3)GlcNAc(b1-2)Man(a1-3)[Gal(b1-3)GlcNAc(b1-2)Man(a1-6)]Man(b1-4)GlcNAc(b1-4)GlcNAc
# How it was run: as §1
# [27] = target: Gal(b1-3)GlcNAc(b1-2)Man(a1-3)[Gal(b1-3)GlcNAc(b1-2)Man(a1-6)]Man(b1-4)GlcNAc(b1-4)[Fuc(a1-6)]GlcNAc
# How it was run: as §1
# [28] = target: Gal(b1-3)GlcNAc(b1-3)Gal(b1-3)GlcNAc
# How it was run: as §1
# [29] = target: Gal(b1-3)GlcNAc(b1-3)Gal(b1-4)Glc
# How it was run: as §1
# [30] = target: Gal(b1-3)GlcNAc(b1-3)Gal(b1-4)GlcNAc
# How it was run: as §1
# [31] = target: Gal(b1-3)[Fuc(a1-4)]GlcNAc
# How it was run: as §1
# [32] = target: Gal(b1-3)[Fuc(a1-4)]GlcNAc(b1-2)Man(a1-3)[Gal(b1-3)[Fuc(a1-4)]GlcNAc(b1-2)Man(a1-6)]Man(b1-4)GlcNAc(b1-4)GlcNAc
# How it was run: as §1
# [33] = target: Gal(b1-3)[Fuc(a1-4)]GlcNAc(b1-2)Man(a1-3)[Gal(b1-3)[Fuc(a1-4)]GlcNAc(b1-2)Man(a1-6)]Man(b1-4)GlcNAc(b1-4)[Fuc(a1-6)]GlcNAc
# How it was run: as §1
# [34] = target: Gal(b1-3)[Fuc(a1-4)]GlcNAc(b1-3)Gal(b1-3)[Fuc(a1-4)]GlcNAc
# How it was run: as §1
# [35] = target: Gal(b1-3)[Fuc(a1-4)]GlcNAc(b1-3)Gal(b1-4)GlcNAc
# How it was run: as §1
# [36] = target: Gal(b1-3)[Fuc(a1-4)]GlcNAc(b1-3)Gal(b1-4)[Fuc(a1-3)]GlcNAc
# How it was run: as §1
# [37] = target: Gal(b1-3)[GlcNAc(b1-6)]GalNAc
# How it was run: as §1
# [38] = target: Gal(b1-3)[Neu5Ac(a2-6)]GalNAc
# How it was run: as §1
# [39] = target: Gal(b1-3)[Neu5Ac(a2-6)]GlcNAc(b1-6)Gal(b1-4)Glc
# How it was run: as §1
# [40] = target: Gal(b1-3)[Neu5Ac(b2-6)]GalNAc
# How it was run: as §1
# [41] = target: Gal(b1-4)GalNAc(a1-3)[Fuc(a1-2)]Gal(b1-4)GlcNAc
# How it was run: as §1
# [42] = target: Gal(b1-4)GalNAc(b1-3)[Fuc(a1-2)]Gal(b1-4)GlcNAc
# How it was run: as §1
# [43] = target: Gal(b1-4)Glc
# How it was run: as §1
# [44] = target: Gal(b1-4)Glc6S
# How it was run: as §1
# [45] = target: Gal(b1-4)GlcNAc
# How it was run: as §1
# [46] = target: Gal(b1-4)GlcNAc(a1-6)Gal(b1-4)GlcNAc
# How it was run: as §1
# [47] = target: Gal(b1-4)GlcNAc(b1-2)Man(a1-3)Man(b1-4)GlcNAc(b1-4)GlcNAc
# How it was run: as §1
# [48] = target: Gal(b1-4)GlcNAc(b1-2)Man(a1-3)[Gal(b1-4)GlcNAc(b1-2)Man(a1-6)]Man(b1-4)GlcNAc(b1-4)GlcNAc
# How it was run: as §1
# [49] = target: Gal(b1-4)GlcNAc(b1-2)Man(a1-3)[Gal(b1-4)GlcNAc(b1-2)Man(a1-6)]Man(b1-4)GlcNAc(b1-4)[Fuc(a1-6)]GlcNAc
# How it was run: as §1
# [50] = target: Gal(b1-4)GlcNAc(b1-2)Man(a1-3)[Man(a1-6)]Man(b1-4)GlcNAc(b1-4)GlcNAc
# How it was run: as §1
# [51] = target: Gal(b1-4)GlcNAc(b1-2)Man(a1-6)Man(b1-4)GlcNAc(b1-4)GlcNAc
# How it was run: as §1
# [52] = target: Gal(b1-4)GlcNAc(b1-2)Man(a1-6)[Man(a1-3)]Man(b1-4)GlcNAc(b1-4)GlcNAc
# How it was run: as §1
# [53] = target: Gal(b1-4)GlcNAc(b1-2)[Gal(b1-4)GlcNAc(b1-4)]Man(a1-3)[Gal(b1-4)GlcNAc(b1-2)Man(a1-6)]Man(b1-4)GlcNAc(b1-4)GlcNAc
# How it was run: as §1
# [54] = target: Gal(b1-4)GlcNAc(b1-3)Gal(b1-3)GlcNAc
# How it was run: as §1
# [55] = target: Gal(b1-4)GlcNAc(b1-3)Gal(b1-4)Glc
# How it was run: as §1
# [56] = target: Gal(b1-4)GlcNAc(b1-3)Gal(b1-4)GlcNAc
# How it was run: as §1
# [57] = target: Gal(b1-4)GlcNAc(b1-3)Gal(b1-4)GlcNAc(b1-3)Gal(b1-4)GlcNAc
# How it was run: as §1
# [58] = target: Gal(b1-4)GlcNAc(b1-3)Gal(b1-4)[Fuc(a1-3)]GlcNAc(b1-3)Gal(b1-4)[Fuc(a1-3)]GlcNAc
# How it was run: as §1
# [59] = target: Gal(b1-4)GlcNAc(b1-3)GalNAc
# How it was run: as §1
# [60] = target: Gal(b1-4)GlcNAc(b1-3)[Gal(b1-4)GlcNAc(b1-6)]Gal(b1-4)GlcNAc
# How it was run: as §1
binder,measurement,setting,value
"4F2hc (Homo sapiens), P08195 (protein) WWHTGALYRIGDLQAFQGHGAGNLAGLKGRLDYLSSLKVKGLVLGPIHKNQKDDVAQTDLLQIDPNFGSKEDFDSLLQSAKKKSIRVILDLTPNYRGENSWFSTQVDTVATKVKDALEFWLQAGVDGFQVRDIENLKDASSFLAEWQNITKGFSEDRLLIAGTNSSDLQQILSLLESNKDLLLTSSYLSDSGSTGEHTKSLVTQYLNATGNRWCSWSLSQARLLTSFLPAQLLRLYQLMLFTLPGTPVFSYGDEIGLDAAALPGQPMEAPVMLWDESSFPDIPGAVSANMTVKGQSEDPGSLLSLFRRLSDQRSKERSLLHGDFHAFSAGPGLFSYIRHWDQNERFLVVLNFGDVGLSAGLQASDLPASASLPAKADLLLSTQPGREEGSPLELERLKLEPHEGLLLRFPYAA",glycan array binding signal (z-score),[1],0.638
same,glycan array binding signal (z-score),[2],0.67
same,glycan array binding signal (z-score),[3],-1.03
same,glycan array binding signal (z-score),[4],0.34
same,glycan array binding signal (z-score),[5],0.442
same,glycan array binding signal (z-score),[6],-1.16
same,glycan array binding signal (z-score),[7],-0.107
same,glycan array binding signal (z-score),[8],-0.267
same,glycan array binding signal (z-score),[9],-0.32
same,glycan array binding signal (z-score),[10],-0.504
same,glycan array binding signal (z-score),[11],-0.258
same,glycan array binding signal (z-score),[12],-0.618
same,glycan array binding signal (z-score),[13],-0.668
same,glycan array binding signal (z-score),[14],-0.645
same,glycan array binding signal (z-score),[15],0.091
same,glycan array binding signal (z-score),[16],2.32
same,glycan array binding signal (z-score),[17],0.2
same,glycan array binding signal (z-score),[18],-0.486
same,glycan array binding signal (z-score),[19],-0.548
same,glycan array binding signal (z-score),[20],-0.658
same,glycan array binding signal (z-score),[21],-0.507
same,glycan array binding signal (z-score),[22],0.03
same,glycan array binding signal (z-score),[23],-1.07
same,glycan array binding signal (z-score),[24],0.252
same,glycan array binding signal (z-score),[25],0.637
same,glycan array binding signal (z-score),[26],3.66
same,glycan array binding signal (z-score),[27],-1.06
same,glycan array binding signal (z-score),[28],0.209
same,glycan array binding signal (z-score),[29],2.15
same,glycan array binding signal (z-score),[30],0.959
same,glycan array binding signal (z-score),[31],0.971
same,glycan array binding signal (z-score),[32],0.766
same,glycan array binding signal (z-score),[33],-0.531
same,glycan array binding signal (z-score),[34],1.47
same,glycan array binding signal (z-score),[35],-0.798
same,glycan array binding signal (z-score),[36],-1.11
same,glycan array binding signal (z-score),[37],-0.662
same,glycan array binding signal (z-score),[38],0.104
same,glycan array binding signal (z-score),[39],0.327
same,glycan array binding signal (z-score),[40],0.036
same,glycan array binding signal (z-score),[41],-1.1
same,glycan array binding signal (z-score),[42],0.058
same,glycan array binding signal (z-score),[43],0.428
same,glycan array binding signal (z-score),[44],-0.496
same,glycan array binding signal (z-score),[45],-0.318
same,glycan array binding signal (z-score),[46],-0.593
same,glycan array binding signal (z-score),[47],0.986
same,glycan array binding signal (z-score),[48],-0.662
same,glycan array binding signal (z-score),[49],-0.525
same,glycan array binding signal (z-score),[50],-0.077
same,glycan array binding signal (z-score),[51],-0.567
same,glycan array binding signal (z-score),[52],-0.997
same,glycan array binding signal (z-score),[53],0.263
same,glycan array binding signal (z-score),[54],-0.941
same,glycan array binding signal (z-score),[55],-0.257
same,glycan array binding signal (z-score),[56],-0.278
same,glycan array binding signal (z-score),[57],0.458
same,glycan array binding signal (z-score),[58],0.933
same,glycan array binding signal (z-score),[59],1.13
same,glycan array binding signal (z-score),[60],1.39

# Fetched one by one from the entries so far (two):
binder,measurement,setting,value
"4F2hc (Homo sapiens), P08195 (protein) WWHTGALYRIGDLQAFQGHGAGNLAGLKGRLDYLSSLKVKGLVLGPIHKNQKDDVAQTDLLQIDPNFGSKEDFDSLLQSAKKKSIRVILDLTPNYRGENSWFSTQVDTVATKVKDALEFWLQAGVDGFQVRDIENLKDASSFLAEWQNITKGFSEDRLLIAGTNSSDLQQILSLLESNKDLLLTSSYLSDSGSTGEHTKSLVTQYLNATGNRWCSWSLSQARLLTSFLPAQLLRLYQLMLFTLPGTPVFSYGDEIGLDAAALPGQPMEAPVMLWDESSFPDIPGAVSANMTVKGQSEDPGSLLSLFRRLSDQRSKERSLLHGDFHAFSAGPGLFSYIRHWDQNERFLVVLNFGDVGLSAGLQASDLPASASLPAKADLLLSTQPGREEGSPLELERLKLEPHEGLLLRFPYAA",glycan array binding signal (z-score),[11],-0.258
same,glycan array binding signal (z-score),[60],1.39
